Results from PubChem BioAssay AID1259415 (National Center for Advancing Translational Sciences (NCATS), 2018).
Values joined by “and” are separate entries in the source; they are usually repeats but may differ in a detail not shown here. Equal values may be shown once. The whole screen tested about 410,000 compounds, of which about 18,000 (4.4%) were called active. This list was built around the results that the source calls inconclusive (neither active nor inactive); the mix of calls is not that of the screen. Cut-off read from the data, not from the text of the source: active = activity change below about -60%; inconclusive = no clear call, values can overlap the other calls; inactive = above about -39%. The source holds several records for some structures; these can differ, active in one and inactive in another. Where a SMILES comes first, the peptide text is derived from it. The star is where a group is joined. Cbz = O=C(OCc1ccccc1)*
% is set by controls: 0 for no effect and ±100 for the full control effect.

Assay: qHTS Assay for inhibitors of the human cytomegalovirus (HCMV)
Details: HFF cells, HCMV-luciferase reporter, 72 h; at 57.5 µM; stronger effect = lower value
Method in brief: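 Luciferase read-out from HCMV-luciferase-infected HFFs (MOI 1 PFU/cell) 72 h post infection at 37C; compounds added after 16 h cell attachment; activity normalized between buffer-only basal and Salinomycin (10uM) inhibitor controls.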
With `O=C(NCC(c1cccs1)N1CCOCC1)c1cc(-c2ccccn2)nc2ccccc12` (stereo not given) the activity change, negative = inhibition was inconclusive: -42%.
For `COc1ccc(CNC(=O)c2c3c(nc4ccccc24)C(=O)N(C2CCCCC2)C3)cc1`, the activity change, negative = inhibition was inactive: 30%.
For `COc1ccccc1-n1cnc2cc(NCc3cccs3)ccc21`, the activity change, negative = inhibition was inconclusive: -42.1%.
For `Cc1[nH]c2ccccc2c1SCCNC(=O)c1ccc(S(=O)(=O)N2CCCC2)cc1`, the activity change, negative = inhibition was inactive: -3.07%.
With `CCN(c1ccccc1)S(=O)(=O)c1ccc(C(C(=O)OC)C(=O)OC)c([N+](=O)[O-])c1` the activity change, negative = inhibition was inactive: 15%.
In the case of `CCOC(=O)c1scc(-c2ccccc2)c1S(=O)(=O)Nc1cc(Cl)c(OC)cc1OC`, the activity change, negative = inhibition is reported as inconclusive: -51%.
In the case of `CN(C)C(=O)COC(=O)c1ccccc1Nc1ccc(SC(F)F)cc1`, the activity change, negative = inhibition is reported as active: -66.9%.
With `COCC(=O)N(C)C1(c2nnnn2CCOC(=O)Nc2ccc(Cl)cc2)CCCCC1` the activity change, negative = inhibition was inconclusive: -56.1%.
For `CCOc1ccccc1NC(=O)N1CCc2c(sc(C)c2CC)C1c1ccccc1` (stereo not given), the activity change, negative = inhibition was inactive: -11.7%.
For `O=[N+]([O-])c1ccccc1OCCCN1CCc2ccccc2C1`, the activity change, negative = inhibition was inactive: 111%.
In the case of `CNc1nc(NCc2cccc(OC)c2)c2sccc2n1`, the activity change, negative = inhibition is reported as inconclusive: -44.7%.
In the case of `O=c1n(Cc2ccc(Cl)cc2)c2sc3c(c2c2ncnn12)CCCC3`, the activity change, negative = inhibition is reported as inconclusive: -43%.
In the case of `CC(C)CC(=O)Nc1sc2c(c1C(=O)O)CCCCC2`, the activity change, negative = inhibition is reported as inconclusive: -41.9%.
For `COc1cc(/C=C(\C#N)c2nc3ccccc3[nH]2)ccc1OCc1cccc(C(F)(F)F)c1`, the activity change, negative = inhibition was active: -87%.
In the case of `CCOc1ccccc1NC(=O)c1ccc(F)c(S(=O)(=O)NCc2ccc3c(c2)OCO3)c1`, the activity change, negative = inhibition is reported as inconclusive: -49.2%.
With `COc1cccc(C(=O)Nc2ccccc2OC(F)(F)F)c1` the activity change, negative = inhibition was inactive: -33.5%.
In the case of `CO/N=C/NC(=O)NOCc1c(Cl)cccc1Cl`, the activity change, negative = inhibition is reported as active: -104%.
With `COC(=O)C1(C(=O)OC)C[C@H](/C=C/c2ccccc2)N(Cc2ccccc2OC)[C@@H]1c1ccc(F)cc1` the activity change, negative = inhibition was inconclusive: -51.6%.
In the case of `O=C(CSCc1ccc([N+](=O)[O-])cc1)NC1CC1`, the activity change, negative = inhibition is reported as inconclusive: -55.4%.
With `O=S(=O)(/C=C/C=C/S(=O)(=O)c1ccccc1)c1ccccc1` the activity change, negative = inhibition was active: -78.1%.
In the case of `COC(=O)/C(=C\C=C\c1ccccc1)NC(=O)c1ccccc1`, the activity change, negative = inhibition is reported as inconclusive: -45.9%.
With `CCN(Cc1ccccc1)Cc1c(O)ccc2c(=O)c(-c3ccc(Cl)cc3Cl)coc12` the activity change, negative = inhibition was inactive: 1.81%.
With `CCOC(=O)CN1C(=O)N[C@@H](c2ccccc2)[C@H](C(C)=O)[C@H]1C` the activity change, negative = inhibition was active: -103%.
For `CCc1ccc(N(C)S(=O)(=O)c2ccc3[nH]cc(C(=O)NCCN4CCOCC4)c(=O)c3c2)cc1`, the activity change, negative = inhibition was inconclusive: -47%.
In the case of `CC(NC(=O)c1ccccc1)C(=O)NC1CCCc2ccccc21` (stereo not given), the activity change, negative = inhibition is reported as inactive: 3.14%.
For `CC(/C=N/NC(=O)Cn1cnc2ccccc21)=C\c1ccccc1`, the activity change, negative = inhibition was active: -70%.
For `COc1cccc(Cn2c(CNC(=O)c3cc([N+](=O)[O-])ccc3Cl)nc3cccnc32)c1`, the activity change, negative = inhibition was inconclusive: -55.1%.
For `NNC(=O)c1oc2ccccc2c1-n1cccc1`, the activity change, negative = inhibition was inconclusive: -54.8%.
With `Cc1cccc(NC(=O)Nc2nnc(N(C)Cc3ccccc3)s2)c1` the activity change, negative = inhibition was inactive: -7.91%.
For `Cc1cc(/C=C2\C(=N)N3N=CSC3=NC2=O)c(C)n1Cc1ccccc1`, the activity change, negative = inhibition was inactive: 43%.
For `O=C1C2ON(c3ccccc3)C(c3ccncc3)C2C(=O)N1c1ccc(N2CCOCC2)cc1` (stereo not given), the activity change, negative = inhibition was active: -74.9%.
With `Cn1c(SCC(=O)N2CCN(c3ccccc3)CC2)nnc1-c1ccccc1` the activity change, negative = inhibition was inactive: -30.9%.
With `COc1cccc(C2C(C(=O)c3sc(C)nc3C)=C(O)C(=O)N2CCN2CCOCC2)c1OC` (stereo not given) the activity change, negative = inhibition was inconclusive: -40.2%.
In the case of `CC(=O)n1nc(-c2cccc(C)c2)nc1SCC(=O)Nc1ccccc1`, the activity change, negative = inhibition is reported as active: -89%.
For `CC(=O)c1ccc(N2CCN(S(=O)(=O)c3ccc4c(c3)C(C)(C)C(=O)N4)CC2)cc1`, the activity change, negative = inhibition was inconclusive: 0%.
With `Cc1cccc(C)c1OCc1cc(C(=O)NCC2CCCCC2)no1` the activity change, negative = inhibition was inconclusive: 0%.
With `COc1ccc(CNC(=O)CCC(=O)n2ncc3cc(C)ccc32)cc1` the activity change, negative = inhibition was inactive: -9.14%.
In the case of `NC(=O)COC(=O)CNC(=O)c1cc(Cl)cc([N+](=O)[O-])c1`, the activity change, negative = inhibition is reported as inconclusive: -48%.
In the case of `CN(C)c1ccc(/C=N/NC(=O)c2ccc3c(c2)OCO3)cc1`, the activity change, negative = inhibition is reported as active: -66%.
With `Cc1ccc2nsnc2c1N` the activity change, negative = inhibition was inconclusive: -59.2%.
With `Cc1ccc(/C=C/C(=O)OCC(=O)NC(C)C)o1` the activity change, negative = inhibition was inactive: -23%.
For `CC(C)C(NC(=O)C(Cc1ccccc1)NC(=O)OCc1ccccc1)C(=O)O` (stereo not drawn) (Cbz-Phe-Val-OH; configuration not given here), the activity change, negative = inhibition was inconclusive: -44.4%.
For `COc1ccc2[nH]c(=O)c(CN(Cc3cccs3)S(=O)(=O)c3cccc4nsnc34)cc2c1`, the activity change, negative = inhibition was inconclusive: -41.1%.
In the case of `CCC(=O)N1CCN(c2ccccc2NC(=O)c2ccc(OC)c(Cl)c2)CC1`, the activity change, negative = inhibition is reported as inactive: -40%.
In the case of `Cc1ccsc1C(=O)C1CCCN(Cc2cc(F)ccc2-n2cccn2)C1` (stereo not given), the activity change, negative = inhibition is reported as inconclusive: -57.2%.
For `O=C1c2ccccc2N2C(=O)c3ccccc3[C@H]2N1c1ccccc1`, the activity change, negative = inhibition was inconclusive: -50.3%.
With `O=C(c1cc2ccc3cccnc3c2[nH]1)N1CCN(c2ccccc2)CC1` the activity change, negative = inhibition was inactive: -8%.
With `COc1ccc(OCc2nnc(SCC(=O)c3ccccc3)o2)cc1` the activity change, negative = inhibition was inconclusive: -53.9%.
In the case of `CCOC(=O)C1CCCN(c2cc(C)nc3cc(-c4ccc(F)cc4)nn23)C1` (stereo not given), the activity change, negative = inhibition is reported as inconclusive: -56.3%.
With `Cc1ccc(C)c(S(=O)(=O)N2CCN(C(C(=O)Nc3ccc(F)cc3)c3ccccc3)CC2)c1` (stereo not given) the activity change, negative = inhibition was inconclusive: -40.7%.
With `O=C(CCNC(=O)OCC1c2ccccc2-c2ccccc21)NOCc1ccccc1` the activity change, negative = inhibition was active: -77%.
In the case of `COc1ccc(-n2c(=O)c(CCC(=O)N3CCN(c4ccccc4O)CC3)nc3ccccc32)cc1`, the activity change, negative = inhibition is reported as inconclusive: -46.2%.
In the case of `O=c1c2c(nc3n1CCCCC3)-c1ccccc1CC21CCCCC1`, the activity change, negative = inhibition is reported as inconclusive: -42.3%.
With `COc1cc2nc(NCc3ccc(C)cc3)n3nc(-c4ccccc4)nc3c2cc1OC` the activity change, negative = inhibition was inactive: 5.16%.
With `CC(OC(=O)c1n[nH]c2ccccc12)C(=O)NC1CCCCC1C` (stereo not given) the activity change, negative = inhibition was inconclusive: -44.8%.
In the case of `Cc1ccc(-c2cc(C(=O)N/N=C/C(Br)=C/c3ccccc3)n[nH]2)o1`, the activity change, negative = inhibition is reported as inconclusive: -48.2%.
In the case of `CC(=O)c1c(C)[nH]c(C(=O)OCC(=O)Nc2cccc(S(=O)(=O)N3CCCC3)c2)c1C`, the activity change, negative = inhibition is reported as active: -65.1%.
In the case of `O=C1NC(c2cccc3ccccc23)Nc2ccc(Cl)cc21` (stereo not given), the activity change, negative = inhibition is reported as active: -72.9%.
With `CN(C)c1oc(-c2ccc(Cl)cc2)nc1S(=O)(=O)c1ccccc1` the activity change, negative = inhibition was inconclusive: -46.4%.
With `Cc1onc(C(=O)N2CCN(Cc3ccccc3)CC2)c1[N+](=O)[O-]` the activity change, negative = inhibition was inactive: -1.4%.
In the case of `O=C(c1ccc(Cl)cc1)c1oc2ccccc2c1CS(=O)c1ccccc1` (stereo not given), the activity change, negative = inhibition is reported as inconclusive: -46.1%.
With `CCCCCCN1C[C@H](n2cc(-c3ccc(F)cc3)nn2)[C@@H](O)C[C@@H]1c1ccc(Cl)cc1` the activity change, negative = inhibition was active: -102%.
In the case of `CCOc1ccc(CNC(=O)c2ccccc2NC(=O)C2=CSCCO2)cc1`, the activity change, negative = inhibition is reported as inactive: 8.63%.
For `CCNC(=S)N1CCN(S(=O)(=O)/C=C/c2ccccc2)CC1`, the activity change, negative = inhibition was inconclusive: -40.5%.
With `Cc1ccc(Cl)cc1N(C(=O)c1csnn1)C(C(=O)NC1CCCC1)c1ccco1` (stereo not given) the activity change, negative = inhibition was inconclusive: -46.6%.
For `CCc1nc2ccccc2c(C(=O)OCC(=O)Nc2cccc(S(=O)(=O)NC3=NCCCCC3)c2)c1C`, the activity change, negative = inhibition was inconclusive: -49.5%.
For `COCCSc1ccccc1C(=O)Nc1ccc(Br)cc1`, the activity change, negative = inhibition was inconclusive: -44.4%.
For `O=C(c1ccco1)N1N=C2CCCCCC2C1(O)C(F)(F)F` (stereo not given), the activity change, negative = inhibition was active: -65.8%.
With `COc1ccc(S(=O)(=O)N2CCN(CCCOc3ccc(F)cc3)CC2)cc1OC` the activity change, negative = inhibition was inconclusive: -43.4%.
With `Cc1ccc(C(=O)NCCCn2ccnc2)cc1[N+](=O)[O-]` the activity change, negative = inhibition was inactive: 18%.
With `Cc1nn(C)cc1[C@@H]1C[C@H]2CN(Cc3cccc(Cl)c3)C(=O)[C@]23CCCN13` the activity change, negative = inhibition was inactive: -18.7%.
For `CCOC(=O)Nc1nnc(/C=C/c2ccc(OC)cc2)s1`, the activity change, negative = inhibition was inconclusive: -47.7%.
For `COc1cc(NC(=O)CSc2ncccc2C(=O)OC(C)C)cc(OC)c1`, the activity change, negative = inhibition was inactive: 7.85% and active: -108%.
With `COc1ccc(CC(=O)OCc2csc(CC(=O)Nc3ccc(C)cc3)n2)cc1` the activity change, negative = inhibition was inconclusive: -41.2%.
With `O=C(NCc1cc(C(F)(F)F)ccc1Cl)c1cccc2c1C(=O)c1ccc(N3CCC(N4CCCCC4)CC3)cc1S2(=O)=O` the activity change, negative = inhibition was active: -101%.
With `COc1ccccc1N(C)S(=O)(=O)c1ccc(C(=O)OCC(N)=O)cc1` the activity change, negative = inhibition was inactive: -28.1%.
For `CN1CCc2c(sc3nc(SCC(N)=O)n(-c4ccc(Cl)cc4)c(=O)c23)C1`, the activity change, negative = inhibition was inconclusive: -59.8%.
With `CC1(C)Cc2c(cnn2-c2cccc(F)c2)C(NC(=O)CCc2cnccn2)C1` (stereo not given) the activity change, negative = inhibition was inconclusive: -48.8%.
In the case of `COc1ccc(Cl)cc1C(=O)Nc1ccc(NC(=O)C(C)C)cc1`, the activity change, negative = inhibition is reported as inconclusive: -46.3%.
For `CCN(CC)CCOC(=O)c1ccc(N/C=C(/C#N)c2nc(-c3ccc(OC)cc3)cs2)cc1`, the activity change, negative = inhibition was active: -77.2%.
In the case of `CC(=O)Nc1ccc(NC(=O)CSc2nccn2Cc2ccccc2)cc1`, the activity change, negative = inhibition is reported as inconclusive: -59.1%.
In the case of `Cc1cccc(NC(=O)c2cc3cc([N+](=O)[O-])ccc3s2)n1`, the activity change, negative = inhibition is reported as inconclusive: -40.1%.
For `CCC[n+]1c2ccccc2cc2ccccc21`, the activity change, negative = inhibition was active: -70%.
In the case of `Cc1occc1-c1nnc(SCC(=O)NCCc2ccccc2)o1`, the activity change, negative = inhibition is reported as inactive: -14.6%.
In the case of `CCOc1ccc2[nH]c(C(=O)N/N=C/c3cc(OC)c(OC)c(OC)c3)cc2c1`, the activity change, negative = inhibition is reported as inactive: 43.1%.
